No constants are given. Whether binding was seen depends on the method and setting. In cells and extracts the contact can be indirect. These calls come from enrichment with a bait or labelling near it, and not all partners need be listed.
Target: Histone H2a (mouse)
Assay: miniTurbo proximity biotinylation (BioID) in MEFs, streptavidin pulldown and proteomics; proximity, not direct binding

- binding: binds
B1: PHF7^miniTurbo (protein)
chain: MKTVKEKKECQRLRKSAKTRRVTQRKPSSGPVCWLCLREPGDPEKLGEFLQKDNISVHYFCLILSSKLPQRGQSNRGFHGFLPEDIKKEAARASRKICFVCKKKGAAINCQKDQCLRNFHLPCGQERGCLSQFFGEYKSFCDKHRPTQNIQHGHVGEESCILCCEDLSQQSVENIQSPCCSQAIYHRKCIQKYAHTSAKHFFKCPQCNNRKEFPQEMLRMGIHIPDRDAAWELEPGAFSDLYQRYQHCDAPICLYEQGRDSFEDEGRWCLILCATCGSHGTHRDCSSLRSNSKKWECEECSPAAATDYIPENSGDIPCCSSTFHPEEHFCRDNTLEENPGLSWTDWPEPSLLEKPESSRGRRSYSWRSKGVRITNSCKKSK

— patent US20260159812A1
